These are yes or no findings as the source states them, for the method shown. Binding seen in cells or lysates may run through a third protein. Some entries that bind do so weakly or less than the wild type. Tags and fused reporters may be left off the sequences shown. One block for each molecule: values may come before it.
Experiments:
[1] = target: T1, Four-and-a-half LIM domains protein 2 (FHL2), DDK-tagged, expressed in NRK-52E cells (UniProt O35115); assay: co-IP; NRK-52E cells transfected with pFHL2 or empty vector pcDNA3 for 6 h; lysate precleared with normal IgG, incubated with anti-FHL2 (or anti-GSK-3β) at 4 °C overnight, protein A/G Plus-agarose 4 h; immunoblot
T1 sequence: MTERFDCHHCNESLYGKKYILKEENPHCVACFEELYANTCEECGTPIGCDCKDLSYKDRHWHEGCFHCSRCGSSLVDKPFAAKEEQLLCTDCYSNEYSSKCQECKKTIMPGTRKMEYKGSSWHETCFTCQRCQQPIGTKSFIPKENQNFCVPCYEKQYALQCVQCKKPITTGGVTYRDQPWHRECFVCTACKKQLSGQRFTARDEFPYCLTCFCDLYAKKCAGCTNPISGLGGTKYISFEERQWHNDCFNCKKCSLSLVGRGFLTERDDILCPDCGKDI

By UniProt entry, the sequences of proteins in these tests, tags left out.
UniProt P18266: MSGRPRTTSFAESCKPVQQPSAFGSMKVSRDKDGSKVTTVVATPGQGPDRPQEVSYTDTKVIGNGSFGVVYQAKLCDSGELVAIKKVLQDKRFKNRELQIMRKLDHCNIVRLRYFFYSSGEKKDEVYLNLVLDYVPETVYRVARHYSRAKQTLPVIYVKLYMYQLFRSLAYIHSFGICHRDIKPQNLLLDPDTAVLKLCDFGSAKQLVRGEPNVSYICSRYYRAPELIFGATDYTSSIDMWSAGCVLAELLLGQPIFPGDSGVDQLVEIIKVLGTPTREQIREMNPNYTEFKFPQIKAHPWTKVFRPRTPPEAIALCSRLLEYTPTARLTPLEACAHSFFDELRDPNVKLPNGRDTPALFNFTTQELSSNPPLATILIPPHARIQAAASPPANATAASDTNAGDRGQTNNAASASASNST
UniProt Q09472: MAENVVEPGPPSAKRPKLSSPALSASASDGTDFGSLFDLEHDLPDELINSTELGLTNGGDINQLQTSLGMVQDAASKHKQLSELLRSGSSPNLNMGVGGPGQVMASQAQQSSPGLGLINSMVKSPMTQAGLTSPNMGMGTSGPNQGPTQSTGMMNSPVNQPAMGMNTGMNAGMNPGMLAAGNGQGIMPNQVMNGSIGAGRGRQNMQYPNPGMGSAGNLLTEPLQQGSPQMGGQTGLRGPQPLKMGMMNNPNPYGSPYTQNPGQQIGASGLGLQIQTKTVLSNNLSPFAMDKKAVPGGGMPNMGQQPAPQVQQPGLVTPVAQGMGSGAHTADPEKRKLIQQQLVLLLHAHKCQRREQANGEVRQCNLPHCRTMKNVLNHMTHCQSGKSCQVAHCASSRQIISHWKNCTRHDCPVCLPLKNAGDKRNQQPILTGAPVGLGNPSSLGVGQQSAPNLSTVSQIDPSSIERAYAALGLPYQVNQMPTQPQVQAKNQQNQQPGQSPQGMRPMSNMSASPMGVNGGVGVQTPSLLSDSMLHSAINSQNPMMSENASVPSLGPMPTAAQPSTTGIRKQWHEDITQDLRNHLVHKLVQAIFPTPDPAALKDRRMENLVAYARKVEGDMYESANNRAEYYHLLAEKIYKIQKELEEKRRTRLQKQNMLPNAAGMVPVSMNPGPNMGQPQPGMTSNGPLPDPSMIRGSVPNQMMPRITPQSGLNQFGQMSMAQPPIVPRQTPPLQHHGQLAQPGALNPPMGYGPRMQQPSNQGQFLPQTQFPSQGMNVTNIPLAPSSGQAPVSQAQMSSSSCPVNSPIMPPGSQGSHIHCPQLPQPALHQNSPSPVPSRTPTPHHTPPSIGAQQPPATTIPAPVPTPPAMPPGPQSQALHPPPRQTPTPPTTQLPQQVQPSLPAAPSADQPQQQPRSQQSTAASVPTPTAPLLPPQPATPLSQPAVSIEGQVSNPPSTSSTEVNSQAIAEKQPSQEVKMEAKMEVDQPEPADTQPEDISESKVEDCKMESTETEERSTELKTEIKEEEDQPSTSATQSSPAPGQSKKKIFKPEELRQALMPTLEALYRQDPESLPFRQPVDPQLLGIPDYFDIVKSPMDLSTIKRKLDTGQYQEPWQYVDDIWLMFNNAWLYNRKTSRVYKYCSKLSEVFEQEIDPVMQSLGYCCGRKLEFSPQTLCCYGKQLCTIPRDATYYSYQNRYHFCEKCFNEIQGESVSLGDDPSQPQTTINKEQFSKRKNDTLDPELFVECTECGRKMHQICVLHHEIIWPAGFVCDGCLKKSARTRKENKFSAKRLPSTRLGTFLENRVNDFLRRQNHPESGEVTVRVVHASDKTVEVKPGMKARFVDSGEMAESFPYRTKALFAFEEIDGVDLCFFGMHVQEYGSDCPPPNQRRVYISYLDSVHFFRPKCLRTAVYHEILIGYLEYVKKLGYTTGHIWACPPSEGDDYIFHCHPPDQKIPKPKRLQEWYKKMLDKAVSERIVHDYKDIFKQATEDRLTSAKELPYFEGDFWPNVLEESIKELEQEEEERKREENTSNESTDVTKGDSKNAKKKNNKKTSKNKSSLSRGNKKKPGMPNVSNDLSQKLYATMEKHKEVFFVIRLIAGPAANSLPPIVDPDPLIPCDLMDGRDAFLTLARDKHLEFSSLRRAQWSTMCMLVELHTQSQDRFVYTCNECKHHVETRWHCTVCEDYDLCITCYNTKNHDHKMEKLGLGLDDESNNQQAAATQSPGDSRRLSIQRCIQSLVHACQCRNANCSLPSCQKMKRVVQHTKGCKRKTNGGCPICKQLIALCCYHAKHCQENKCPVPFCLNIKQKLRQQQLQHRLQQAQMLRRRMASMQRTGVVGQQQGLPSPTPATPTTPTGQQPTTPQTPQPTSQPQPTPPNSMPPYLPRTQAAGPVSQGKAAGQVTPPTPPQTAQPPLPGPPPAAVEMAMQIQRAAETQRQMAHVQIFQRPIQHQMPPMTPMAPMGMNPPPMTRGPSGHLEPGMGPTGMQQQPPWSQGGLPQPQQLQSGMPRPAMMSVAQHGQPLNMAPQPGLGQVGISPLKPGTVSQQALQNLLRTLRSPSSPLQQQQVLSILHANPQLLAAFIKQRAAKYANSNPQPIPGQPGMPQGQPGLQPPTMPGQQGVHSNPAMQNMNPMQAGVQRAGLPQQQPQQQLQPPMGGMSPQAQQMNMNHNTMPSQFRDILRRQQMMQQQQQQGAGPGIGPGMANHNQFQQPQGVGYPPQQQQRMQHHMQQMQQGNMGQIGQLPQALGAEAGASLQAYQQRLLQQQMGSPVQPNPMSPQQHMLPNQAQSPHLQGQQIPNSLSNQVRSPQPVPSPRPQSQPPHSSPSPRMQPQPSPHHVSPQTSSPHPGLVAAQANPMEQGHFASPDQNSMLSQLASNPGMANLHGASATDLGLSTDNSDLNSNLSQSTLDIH
UniProt O35800: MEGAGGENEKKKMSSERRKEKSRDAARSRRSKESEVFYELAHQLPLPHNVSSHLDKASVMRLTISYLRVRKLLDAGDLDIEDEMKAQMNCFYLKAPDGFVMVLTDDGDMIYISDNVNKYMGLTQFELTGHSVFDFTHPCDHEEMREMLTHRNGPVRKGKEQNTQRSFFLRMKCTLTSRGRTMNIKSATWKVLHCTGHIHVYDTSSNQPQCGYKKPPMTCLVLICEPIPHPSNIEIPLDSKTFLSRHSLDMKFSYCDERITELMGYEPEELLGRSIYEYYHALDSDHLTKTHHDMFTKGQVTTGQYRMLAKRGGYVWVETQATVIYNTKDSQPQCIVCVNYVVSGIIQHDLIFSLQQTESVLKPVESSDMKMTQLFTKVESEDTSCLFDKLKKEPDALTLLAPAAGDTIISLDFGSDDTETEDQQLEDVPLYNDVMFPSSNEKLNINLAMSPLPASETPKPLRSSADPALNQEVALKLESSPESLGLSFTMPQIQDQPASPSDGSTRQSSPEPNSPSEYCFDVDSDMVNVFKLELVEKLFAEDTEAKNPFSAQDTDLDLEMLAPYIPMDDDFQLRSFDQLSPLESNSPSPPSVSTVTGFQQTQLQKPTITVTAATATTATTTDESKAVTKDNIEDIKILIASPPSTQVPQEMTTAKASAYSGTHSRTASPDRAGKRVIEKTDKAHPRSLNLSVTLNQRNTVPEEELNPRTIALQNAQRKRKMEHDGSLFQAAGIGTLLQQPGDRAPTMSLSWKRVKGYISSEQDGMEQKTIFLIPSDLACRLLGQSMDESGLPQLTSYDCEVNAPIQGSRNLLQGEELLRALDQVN

[2] = target: T2, Four-and-a-half LIM domains protein 2 (FHL2), DDK-tagged, expressed in HEK293 cells (UniProt O35115); assay: co-IP; HEK293 cells co-transfected with myc-tagged p300 and DDK-tagged FHL2 or pcDNA3; lysate immunoprecipitated with anti-myc or anti-DDK at 4 °C overnight, protein A/G Plus-agarose; immunoblot for DDK or myc
T2 sequence: T1 sequence

[3] = target: glycogen synthetic kinase 3β (GSK-3β) (rat (endogenous in NRK-52E)) (UniProt P18266); assay: co-IP; NRK-52E cells transfected with pFHL2 or empty vector pcDNA3 for 6 h; lysate precleared with normal IgG, incubated with anti-FHL2 (or anti-GSK-3β) at 4 °C overnight, protein A/G Plus-agarose 4 h; immunoblot
p300, myc-tagged = p300, myc-tagged (UniProt Q09472); assay: co-IP; HEK293 cells co-transfected with myc-tagged p300 and DDK-tagged FHL2 or pcDNA3; lysate immunoprecipitated with anti-myc or anti-DDK at 4 °C overnight, protein A/G Plus-agarose; immunoblot for DDK or myc

Molecule: glycogen synthetic kinase 3β (GSK-3β) (from UniProt P18266 1-420) (enzyme)
binding [1]: binds

B3: β-catenin (protein, UniProt Q9WU82 1-781)
chain: MATQADLMELDMAMEPDRKAAVSHWQQQSYLDSGIHSGATTTAPSLSGKGNPEEEDVDTSQVLYEWEQGFSQSFTQEQVADIDGQYAMTRAQRVRAAMFPETLDEGMQIPSTQFDAAHPTNVQRLAEPSQMLKHAVVNLINYQDDAELATRAIPELTKLLNDEDQVVVNKAAVMVHQLSKKEASRHAIMRSPQMVSAIVRTMQNTNDVETARCTAGTLHNLSHHREGLLAIFKSGGIPALVKMLGSPVDSVLFYAITTLHNLLLHQEGAKMAVRLAGGLQKMVALLNKTNVKFLAITTDCLQILAYGNQESKLIILASGGPQALVNIMRTYTYEKLLWTTSRVLKVLSVCSSNKPAIVEAGGMQALGPHLTDPSQRLVQNCLWTLRNLSDAATKQEGMEGLLGTLVQLLGSDDINVVTCAAGILSNLTCNNYKNKMMVCQVGGIEALVRTVLRAGDREDITEPAICALRHLTSRHQEAEMAQNAVRLHYGLPVVVKLLHPPSHWPLIKATVGLIRNLALCPANHAPLREQGAIPRLVQLLVRAHQDTQRRTSMGGTQQQFVEGVRMEEIVEGCTGALHILARDVHNRIVIRGLNTIPLFVQLLYSPIENIQRVAAGVLCELAQDKEAAEAIEAEGATAPLTELLHSRNEGVATYAAAVLFRMSEDKPQDYKKRLSVELTSSLFRTEPMAWNETADLGLDIGAQGEALGYRQDDPSYRSFHSGGYGQDALGMDPMMEHEMGGHHPGADYPVDGLPDLGHAQDLMDGLPPGDSNQLAWFDTDL
binding [1]: binds

Now from value to molecule:

binding [1]: binds
Molecule: hypoxia inducible factor 1α (HIF-1α) (from UniProt O35800 1-825)

binding [2]: binds
Molecule: p300, myc-tagged (from UniProt Q09472 1-2414) (enzyme)

binding [3]: binds
B1: Four-and-a-half LIM domains protein 2 (FHL2), DDK-tagged, expressed in NRK-52E cells (protein, UniProt O35115 1-279)
chain: T1 sequence

binding (p300, myc-tagged): binds
B2: Four-and-a-half LIM domains protein 2 (FHL2), DDK-tagged, expressed in HEK293 cells (protein, UniProt O35115 1-279)
chain: T1 sequence

From paper PMC11139843
